Results from US20080221100A1, “SOLUBLE EPOXIDE HYDROLASE INHIBITORS” (Arete Therapeutics, Inc., priority 2006, published 2008).
At least one structure is not confirmed: it was looked up by name or label, or the drawing left a doubt.

System: soluble epoxide hydrolase (sEH)
Assay: Fluorescent assay for mouse and human soluble epoxide hydrolase (CMNPC substrate)
Type: biochemical, mouse or human, not specified
Conditions: Conc 200 nM
Text: Fluorescent Assay for Mouse and Human Soluble Epoxide Hydrolase Recombinant mouse sEH (MsEH) and human sEH (HsEH) were produced in a baculovirus expression system as previously reported. Grant et al., J. Biol. Chem., 268:17628-17633 (1993); Beetham et al., Arch. Biochem. Biophys., 305:197-201 (1993). The expressed proteins were purified from cell lysate by affinity chromatography. Wixtrom et al., Anal. Biochem., 169:71-80 (1988). Protein concentration was quantified using the Pierce BCA assay using bovine serum albumin as the calibrating standard. […] They contained no detectable esterase or glutathione transferase activity which can interfere with the assay. The assay was also evaluated with similar results in crude cell lysates or homogenate of tissues. The IC50s for each inhibitor were determined according to the following procedure: Substrate: [drawing 155] […] Jones P. D. et al.; Analytical Biochemistry 2005; 343: pp. 66-75) Solutions: Bis/Tris HCl 25 mM pH 7.0 containing 0.1 mg/mL of BSA (buffer […] at 0.25 mM in DMSO. Mother solution of enzyme in buffer A (Mouse sEH at 6 μg/mL and Human sEH at 5 μg/mL). Inhibitor dissolved in DMSO at the appropriate concentration. Protocol: In a black 96 well plate, fill all the wells with 150 μL of buffer A. Add 2 μL of DMSO in well A2 and A3, and then add 2 μL of inhibitor solution in A1 and A4 through A12. Add 150 μL of buffer A in row A, then mix several time and transfer 150 μL to row B. Repeat this operation up to row H. The 150 μL removed from row H is discarded. Add 20 μL of buffer A in column 1 and 2, then add 20 μL of enzyme solution to column 3 to 12. Incubate the plate for 5 minutes in the plate reader at 30° C. During incubation prepare the working solution of substrate by mixing 3.68 mL of buffer A (4×0.920 mL) with 266 μL (2×133 μL) of substrate solution). At t=0, add 30 μL of working substrate solution with multi-channel pipette labeled “Briggs 303” and start the reading ([S]final: 5 μM). Read with ex: 330 nm (20 nm) and em: 465 nm (20 nm) every 30 second for 10 minutes. […]

Row | SMILES | % Inhibition [%]
1 | CC(=O)N1CCC(NC(=O)Nc2ccc(Br)cc2)CC1 [Compound 43, 1-(1-acetylpiperidin-4-yl)-3-(4-bromophenyl)urea] | 69
2 | CC(C)S(=O)(=O)N1CCC(NC(=O)Nc2ccc(Br)cc2)CC1 [Compound 44, 1-(4-bromophenyl)-3-(1-(isopropylsulfonyl)piperidin-4-yl)urea] | 93
3 | CC(C)C(=O)N1CCC(NC(=O)Nc2ccc(Br)cc2)CC1 [Compound 46, 1-(4-bromophenyl)-3-(1-isobutyrylpiperidin-4-yl)urea] | 94
